Reference: PubChem BioAssay AID504793 (Drosophila RNAi Screening Center, 2011)
The screen tested about 23,000 reagents; this is a random part of those that have a named target and a result. In the full data, 62 (0.27%) were called active. 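Calls come from follow-up tests whose scores are not deposited, so confirmed genes may have low counts here; counts are not normalised per plate.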 Raw values are not corrected between plates. A plus sign joins genes that one reagent is predicted to hit.

Test: 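Genes required for cells to halt at G2/M after double-strand DNA breaks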 (primary screen)
System: Drosophila S2R+ cells
Reagent: long dsRNA against Drosophila genes, about 0.25 µg dsRNA per well
Timing: 4 days of dsRNA, then 4 hours of drug before read-out
Treatment: doxorubicin 0.5 µM for 4 hours to cause double-strand breaks, in cells also given a low, harmless dose of dsRNA against nbs to sensitise the assay
Measured: 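Mitotic index as the number of phospho-histone H3-positive cells in each well following doxorubicin, given as raw counts without normalisation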
Scale: mitotic cells: higher = more cells in mitosis, weaker G2 arrest
Active means: 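Genes are called active only when high mitotic counts were reproduced with independent dsRNAs and mitosis was checked for delay without damage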
Meaning of the calls: active = confirmed in follow-up tests; inactive = not confirmed

Gcna [SID104198345] gave mitotic cells, replicate 1 = 7; inactive.
Depletion of CG31975 + ovm [SID104180115] resulted in: mitotic cells, replicate 1 = 4; inactive.
For soti [SID104196224] the deposit lists mitotic cells, replicate 1 = 8; inactive.
Silencing of soti [SID104207226] resulted in: mitotic cells, replicate 1 = 2; inactive.
msk [SID104191132] gave mitotic cells, replicate 1 = 6; inactive.
Silencing of msk [SID104202949] resulted in: mitotic cells, replicate 1 = 3; inactive.
Silencing of Syx8 [SID104190194] gave: mitotic cells, replicate 1 = 9; inactive.
After knock-down of Syx8 [SID104201950], the screen gave mitotic cells, replicate 1 = 11; inactive.
For Syx8 [SID104206291] the deposit lists mitotic cells, replicate 1 = 7; inactive.
After knock-down of lt [SID104183551], the record shows mitotic cells, replicate 1 = 3; inactive.
For Rfx [SID104196612], the values are mitotic cells, replicate 1 = 8; inactive.
Depletion of qjt [SID104189852] resulted in: mitotic cells, replicate 1 = 6; inactive.
For qjt [SID104203469], the values are mitotic cells, replicate 1 = 11; inactive.
Against AANATL4 [SID104186566] the deposit lists mitotic cells, replicate 1 = 21; inactive.

Copied from the listing, 4 entries:
Gcna [SID104198345] → mitotic cells, replicate 1 = 7; call = inactive
CG31975 + ovm [SID104180115] → mitotic cells, replicate 1 = 4; call = inactive
soti [SID104196224] → mitotic cells, replicate 1 = 8; call = inactive
soti [SID104207226] → mitotic cells, replicate 1 = 2; call = inactive

Additional entries:
Silencing of Coq4 + frc [SID104190173] gave: mitotic cells, replicate 1 = 8; inactive.
Coq4 + frc [SID104190174] showed mitotic cells, replicate 1 = 8; inactive.
Against CG13245 [SID104182035], the entry reads mitotic cells, replicate 1 = 3; inactive.
With knock-down of thr [SID104187498], the record shows mitotic cells, replicate 1 = 9; inactive.
Obp57c [SID104186176] scored mitotic cells, replicate 1 = 5; inactive.
For slo [SID104196849], the values are mitotic cells, replicate 1 = 8; inactive.
Against CG15864 [SID104194914], the entry reads mitotic cells, replicate 1 = 2; inactive.
With knock-down of CG15864 [SID104204203], the record shows mitotic cells, replicate 1 = 7; inactive.
Ttd14 [SID104186424] gave mitotic cells, replicate 1 = 4; inactive.
Ttd14 [SID104186734] scored mitotic cells, replicate 1 = 6; inactive.
Mal-A5 [SID104187024] gave mitotic cells, replicate 1 = 5; inactive.
For Mal-A5 [SID104208050] the deposit lists mitotic cells, replicate 1 = 8; inactive.
org-1 [SID104202331] scored mitotic cells, replicate 1 = 14; inactive.
Knock-down of org-1 [SID104204315] gave: mitotic cells, replicate 1 = 7; inactive.
After knock-down of CG14515 [SID104194659] the results were mitotic cells, replicate 1 = 10; inactive.
After knock-down of alphaTub67C [SID104191113] the results were mitotic cells, replicate 1 = 161; inactive.
Depletion of alphaTub67C [SID104203708] came out at: mitotic cells, replicate 1 = 48; inactive.
Knock-down of Krn [SID104190994] resulted in: mitotic cells, replicate 1 = 4; inactive.
NC2alpha [SID104183851] showed mitotic cells, replicate 1 = 7; inactive.
For NC2alpha [SID104203894], the values are mitotic cells, replicate 1 = 5; inactive.
